In this assay the target is T1, PR20 modified with a dansyl group at the N-terminus (Dnc-PR20).
T1 sequence (peptide, dansyl group at the N-terminus): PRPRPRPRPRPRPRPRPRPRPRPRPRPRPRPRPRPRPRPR
In words: other fluorescence titration.

Results are given in words; binding and its absence hold for the method and conditions named. Binding calls can cover weak binding; strength is not graded here.

Regarding “CeKapβ2 (imb-2, Kapβ2 homolog in C. elegans)”, the binding result was “binds”.

(Values after paper doi:10.1101/2024.07.03.601791.)
